Among the data in PubChem BioAssay AID342 (DTP/NCI, 2004) are survivor count and T/C values, retold here.

The list does not hold the whole screen: it gathers tests that were run many times, whatever their T/C, doses with no T/C, and many T/C values between a quarter and a half above the control. Further doses and runs are listed elsewhere. T/C: endpoint of the treated group in % of that of the vehicle group. Schedule codes are those of the source, read here as Q, the interval in days (D) or hours (H), X, the number of doses. Some schedule codes hold Z or #, which are not explained here. Some T/C values are followed by the survivors on the day toxicity was checked, most often the fifth; without a count, all were alive then. Some entries give survivors of the animals treated and no T/C: the source files T/C as zero there, which appears to mark a toxic dose or a test without result, not a measured value. Counts of survivors are from the toxicity check (mostly the fifth day) where no day follows; animals may have died later. Square brackets hold non-standard residues; d marks the D form. Peptide text beside a SMILES is read from it. ξ: configuration not given here. Ac5c = NC1(C(=O)O)CCCC1; ξS = NC(CO)C(=O)O

For the experiment, the system named is Swiss mice, Sarcoma 180 sc, mean tumor weight T/C. Description: NCI In Vivo Anticancer Drug Screen. Data for tumor model Sarcoma 180 (subcutaneous) in Swiss mice. As to conditions: T/C endpoint: mean tumor weight, higher T/C = larger tumour; for T/C: evaluated on day 8. On the procedure:
The antitumor activity of compounds was measured in mice bearing transplantable tumors. Survival or tumor size were measured and the results are expressed as the measurement made in the treated group (T) divided by the measurement made in the vehicle treated control group (C). The tumor model used in this assay is Sarcoma 180 (subcutaneous) in Swiss mice

[1] abbreviates: dose: 250.0 mg/kg/injection, schedule: Q01DX007 (ip), vehicle: carboxymethylcellulose (CMC).
The mark [2] stands for this setting: dose: 15.0 mg/kg/injection, schedule: Q01DX007 (ip), vehicle: saline.
Where [3] appears, read: dose: 125.0 mg/kg/injection, schedule: Q01DX007 (ip), vehicle: carboxymethylcellulose (CMC).
Setting [4] is: dose: 500.0 mg/kg/injection, schedule: Q01DX007 (ip), vehicle: carboxymethylcellulose (CMC).
[5] abbreviates: dose: 7.5 mg/kg/injection, schedule: Q#A X014 (ip), vehicle: saline.
Where [6] appears, read: dose: 11.25 mg/kg/injection, schedule: Q#A X014 (ip), vehicle: saline.
The mark [7] stands for this setting: dose: 250.0 mg/kg/injection, schedule: Q01DX007 (ip), vehicle: saline.
Where [8] appears, read: dose: 500.0 mg/kg/injection, schedule: Q01DX007 (ip), vehicle: saline.

Regarding `C[C@]12CCC(=O)C=C1[C@@H](F)C[C@@H]1[C@@H]2[C@@H](O)C[C@@]2(C)[C@H]1CC[C@]2(O)C(=O)CO`, the survivor count (dose: 282.0 mg/kg/injection, schedule: Q01DX007 (sc), vehicle: steroid suspending solution) is listed as 1 of 6.
`CCCCN(C)/N=N/c1nc[nH]c1C(N)=O`: the survivor count under setting [1] is on record as 0 of 6.
Take `CC1CN1C(=O)Nc1cccc2c(NC(=O)N3CC3C)cccc12` (stereo not given): the survivor count by setting is: (dose: 31.5 mg/kg/injection, schedule: Q#A X014 (ip), vehicle: methylcellulose (MC)) 3 of 6; (dose: 53.0 mg/kg/injection, schedule: Q01DX007 (ip), vehicle: carboxymethylcellulose (CMC)) 3 of 6; (dose: 80.0 mg/kg/injection, schedule: Q01DX007 (ip), vehicle: carboxymethylcellulose (CMC)) 0 of 6; (dose: 120.0 mg/kg/injection, schedule: Q01DX007 (ip), vehicle: carboxymethylcellulose (CMC)) 0 of 6; (dose: 120.0 mg/kg/injection, schedule: Q01DX007 (ip), vehicle: saline) 1 of 7.
Turning to `Cc1cn(C2OC(CO)C(O)C2O)c(=O)[nH]c1=O` (stereo not given), the survivor count under setting [2] is listed as 0 of 7.
Consider `O=C(O)C(O)C(F)(F)F` (stereo not given), for which the T/C (dose: 15.5 mg/kg/injection, schedule: Q#A X014 (ip), vehicle: saline) is 128 % of control. In addition, the survivor count by setting is: (dose: 62.5 mg/kg/injection, schedule: Q#A X014 (ip), vehicle: saline) 3 of 6; (dose: 125.0 mg/kg/injection, schedule: Q#A X014 (ip), vehicle: saline) 2 of 6.
As to `NC(Cc1cc(I)c(Oc2ccc(O)c(I)c2)c(I)c1)C(=O)O` (stereo not given), the T/C (dose: 100.0 micrograms/kg/injection, schedule: Q01DX007 (sc), vehicle: steroid suspending solution) is 130 % of control [4 of 6 alive].
Regarding `CC12CCC3C(CCC4CC=CCC43C)C1CCC2=O` (stereo not given), the T/C (dose: 62.5 mg/kg/injection, schedule: Q01DX007 (sc), vehicle: steroid suspending solution) is 129 % of control.
On to `O=C(O)O.[Cd]`, for which the survivor count reads like this: (dose: 10.0 mg/kg/injection, schedule: Q01DX007 (ip), vehicle: carboxymethylcellulose (CMC)) 2 of 6; (dose: 40.0 mg/kg/injection, schedule: Q01DX007 (ip), vehicle: carboxymethylcellulose (CMC)) 2 of 6; under setting [3], 1 of 6; under setting [4], 2 of 6.
On to `Cc1cc(N)c2cc(NC(=O)/C=C\c3ccccc3Cl)ccc2n1`, for which the survivor count (dose: 38.0 mg/kg/injection, schedule: Q01DX007 (ip), vehicle: carboxymethylcellulose (CMC)) was 1 of 6.
Consider `O=C(O)CCCc1ccc(N(CCCl)CCCl)cc1`, for which the survivor count reads like this: (dose: 15.4 mg/kg/injection, schedule: Q01DX007 (ip), vehicle: carboxymethylcellulose (CMC)) 4 of 10; (dose: 24.1 mg/kg/injection, schedule: Q01DX007 (ip), vehicle: carboxymethylcellulose (CMC)) 3 of 10.
As for `O=S(c1ccc(Cl)cc1)c1ccc(Cl)cc1`, the survivor count under setting [3] is on record as 2 of 6.
As to `CCCCOP(=S)(N1CC1)N1CC1`, the survivor count (dose: 6.6 mg/kg/injection, schedule: Q01DX007 (ip), vehicle: saline) is reported as 0 of 6; the survivor count under setting [5] is on record as 1 of 6; the survivor count (dose: 10.0 mg/kg/injection, schedule: Q01DX007 (ip), vehicle: saline) was 0 of 6; the survivor count under setting [6] was 1 of 6; the survivor count under setting [2] was 0 of 6; the survivor count (dose: 22.5 mg/kg/injection, schedule: Q01DX007 (ip), vehicle: saline) is given as 0 of 6.
Turning to `C=CCCCCCCCCC(=O)O`, the T/C reads like this: under setting [7], 125 % of control; under setting [8], 127 % of control.
On to `CC1=C2C(=CC(C)(C)[C@@H]2O)C(=O)[C@](C)(O)C12CC2`, for which, under “dose: 0.6 mg/kg/injection, schedule: Q01DX007 (ip), vehicle: saline”, the survivor count is recorded as 2 of 6.
Take `C=CC1CN2CCC1CC2C(O)c1ccnc2ccc(OC)cc12` (stereo not given): for the setting “dose: 450.0 mg/kg/injection, schedule: Q01DX007 (ip), vehicle: carboxymethylcellulose (CMC)”, the survivor count is given as 1 of 10.
In the case of `C[N+]1(CCC[N+]2(C)C[C@@H]3[C@H](C2)[C@@H]2C=C[C@H]3C2)CCOCC1` (stereo not given in full), the T/C under setting [7] is 130 % of control. The survivor count (dose: 1000.0 mg/kg/injection, schedule: Q01DX007 (ip), vehicle: saline) is 0 of 6.
For the compound `CN(C)[C@@H]1C(=O)C(C(=O)NCNC2(C(=O)O)CCCC2)=C(O)[C@@]2(O)C(=O)C3=C(O)c4c(O)cccc4[C@@](C)(O)[C@H]3C[C@@H]12`, the survivor count under setting [8] is recorded as 2 of 6.
In the case of `CC(=O)Nc1cc2oc3ccccc3c2cc1[N+](=O)[O-]`, the survivor count reads like this: (dose: 500.0 mg/kg/injection, schedule: Q01DX007 (ip), vehicle: methylcellulose (MC)) 4 of 7; (dose: 750.0 mg/kg/injection, schedule: Q01DX007 (ip), vehicle: methylcellulose (MC)) 3 of 7.
Regarding `CC(=O)[C@H]1[C@H](C)C[C@H]2[C@@H]3CCC4=CC(=O)CC[C@]4(C)[C@@]3(F)[C@@H](O)C[C@@]21C`, the survivor count reads like this: (dose: 375.0 mg/kg/injection, schedule: Q01DX007 (sc), vehicle: steroid suspending solution) 3 of 6; (dose: 2850.0 mg/kg/injection, schedule: Q01DX007 (sc), vehicle: steroid suspending solution) 3 of 7.
Turning to `CCOC(=O)Sc1ncnc2nc[nH]c12`, the T/C (dose: 0.8 mg/kg/injection, schedule: Q01DX007 (ip), vehicle: carboxymethylcellulose (CMC)) is 136 % of control.
Take `NC(CO)C(=O)NC1(C(=O)O)CCCC1` (stereo not given) (H-[ξS]-[Ac5c]-OH): the survivor count (dose: 375.0 mg/kg/injection, schedule: Q01DX007 (ip), vehicle: carboxymethylcellulose (CMC)) was 2 of 6.
Take `CN(N=O)C(=O)Nc1c[nH]c(=O)[nH]c1=O`: the survivor count (dose: 50.0 mg/kg/injection, schedule: Q#A X014 (ip), vehicle: carboxymethylcellulose (CMC)) was 1 of 6.
On to `CCCCCCCCCCCCCCCCCC1=NC(C)CC(C)(C)O1` (stereo not given), for which, under “dose: 281.5 mg/kg/injection, schedule: Q#A X014 (ip), vehicle: saline”, the survivor count is given as 2 of 6.
As for `COc1cccc2c1-c1ccccc1C2`, under setting [3], the T/C was 136 % of control.
On to `O=C(O)C(=O)O.O=C([O-])C(=O)O.O=C([O-])C(=O)O.O=C([O-])C(=O)[O-].[K+].[U]`, for which the survivor count reads like this: under setting [5], 1 of 6; under setting [6], 3 of 6.
For `CC(=O)OCC(=O)[C@@]1(O)CC[C@H]2[C@@H]3CCC4=CC(=O)C=C[C@]4(C)[C@@]3(F)[C@@H](O)C[C@@]21C`, the survivor count (dose: 13.5 mg/kg/injection, schedule: Q#A X014 (sc), vehicle: steroid suspending solution) is reported as 1 of 6; the survivor count (dose: 20.0 mg/kg/injection, schedule: Q#A X014 (sc), vehicle: steroid suspending solution) is 3 of 6; the survivor count (dose: 30.0 mg/kg/injection, schedule: Q#A X014 (sc), vehicle: steroid suspending solution) is recorded as 1 of 6; the survivor count (dose: 45.0 mg/kg/injection, schedule: Q#A X014 (sc), vehicle: steroid suspending solution) is 2 of 6.
Take `O=C(c1ccccc1)C(C(=O)c1ccccc1)C(=O)c1ccccc1.O=C(c1ccccc1)C(C(=O)c1ccccc1)C(=O)c1ccccc1.[Cu]`: the survivor count runs as follows: (dose: 190.0 mg/kg/injection, schedule: Q01DX007 (ip), vehicle: carboxymethylcellulose (CMC)) 3 of 6; (dose: 426.0 mg/kg/injection, schedule: Q01DX007 (ip), vehicle: carboxymethylcellulose (CMC)) 1 of 6.
With `O=C(O)C(=O)c1ccc(-c2ccccc2)cc1`, the survivor count runs as follows: (dose: 62.5 mg/kg/injection, schedule: Q01DX007 (ip), vehicle: carboxymethylcellulose (CMC)) 2 of 6; under setting [3], 2 of 6; under setting [1], 0 of 6; under setting [4], 0 of 6.
